Library screen at single concentrations

By UniProt entry, the sequences of proteins in these tests, tags left out. Residues count along the entry.
UniProt I6X8D2, whole entry: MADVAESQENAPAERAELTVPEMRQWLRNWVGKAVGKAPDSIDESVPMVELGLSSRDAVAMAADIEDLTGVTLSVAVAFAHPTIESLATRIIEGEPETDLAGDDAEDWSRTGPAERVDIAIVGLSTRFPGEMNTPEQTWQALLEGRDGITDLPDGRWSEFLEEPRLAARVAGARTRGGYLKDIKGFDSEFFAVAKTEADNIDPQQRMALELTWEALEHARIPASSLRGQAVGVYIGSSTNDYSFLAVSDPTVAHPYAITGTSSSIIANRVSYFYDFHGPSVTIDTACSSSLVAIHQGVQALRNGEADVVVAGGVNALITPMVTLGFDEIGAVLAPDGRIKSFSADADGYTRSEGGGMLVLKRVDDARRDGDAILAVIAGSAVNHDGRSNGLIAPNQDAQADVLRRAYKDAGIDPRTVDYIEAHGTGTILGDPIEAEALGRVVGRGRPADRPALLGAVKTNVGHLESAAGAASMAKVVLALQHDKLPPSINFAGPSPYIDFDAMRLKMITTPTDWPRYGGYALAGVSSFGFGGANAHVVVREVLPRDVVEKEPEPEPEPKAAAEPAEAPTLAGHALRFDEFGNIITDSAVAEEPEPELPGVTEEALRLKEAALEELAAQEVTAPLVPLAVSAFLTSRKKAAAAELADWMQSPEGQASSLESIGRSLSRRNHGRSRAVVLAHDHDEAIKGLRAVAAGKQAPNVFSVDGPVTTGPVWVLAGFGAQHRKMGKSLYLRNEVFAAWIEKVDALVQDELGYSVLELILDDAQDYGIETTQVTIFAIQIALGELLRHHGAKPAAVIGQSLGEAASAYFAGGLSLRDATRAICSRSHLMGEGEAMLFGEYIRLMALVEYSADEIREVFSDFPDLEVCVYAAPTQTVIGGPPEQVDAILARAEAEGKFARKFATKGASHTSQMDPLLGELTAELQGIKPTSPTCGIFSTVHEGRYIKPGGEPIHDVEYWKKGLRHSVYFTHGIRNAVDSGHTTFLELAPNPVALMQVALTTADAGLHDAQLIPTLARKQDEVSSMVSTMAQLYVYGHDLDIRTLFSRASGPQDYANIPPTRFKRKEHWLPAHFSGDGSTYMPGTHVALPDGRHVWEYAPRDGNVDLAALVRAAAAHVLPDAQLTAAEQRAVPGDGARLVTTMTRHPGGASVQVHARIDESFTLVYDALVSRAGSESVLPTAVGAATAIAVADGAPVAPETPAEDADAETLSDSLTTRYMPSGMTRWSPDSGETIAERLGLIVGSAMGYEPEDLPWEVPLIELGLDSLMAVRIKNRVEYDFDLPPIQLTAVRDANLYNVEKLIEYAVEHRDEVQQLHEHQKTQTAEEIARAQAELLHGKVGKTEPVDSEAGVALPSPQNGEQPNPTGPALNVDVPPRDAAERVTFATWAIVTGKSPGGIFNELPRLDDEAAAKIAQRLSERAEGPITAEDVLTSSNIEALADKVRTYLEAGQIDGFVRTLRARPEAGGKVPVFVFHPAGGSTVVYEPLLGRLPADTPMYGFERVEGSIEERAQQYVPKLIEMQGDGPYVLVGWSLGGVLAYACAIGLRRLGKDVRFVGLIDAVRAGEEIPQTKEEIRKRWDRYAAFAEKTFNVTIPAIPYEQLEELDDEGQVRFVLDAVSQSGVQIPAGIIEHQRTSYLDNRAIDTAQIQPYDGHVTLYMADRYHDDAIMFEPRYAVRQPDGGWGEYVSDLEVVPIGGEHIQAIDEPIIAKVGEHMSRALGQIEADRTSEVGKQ
UniProt P9WNZ1, whole entry: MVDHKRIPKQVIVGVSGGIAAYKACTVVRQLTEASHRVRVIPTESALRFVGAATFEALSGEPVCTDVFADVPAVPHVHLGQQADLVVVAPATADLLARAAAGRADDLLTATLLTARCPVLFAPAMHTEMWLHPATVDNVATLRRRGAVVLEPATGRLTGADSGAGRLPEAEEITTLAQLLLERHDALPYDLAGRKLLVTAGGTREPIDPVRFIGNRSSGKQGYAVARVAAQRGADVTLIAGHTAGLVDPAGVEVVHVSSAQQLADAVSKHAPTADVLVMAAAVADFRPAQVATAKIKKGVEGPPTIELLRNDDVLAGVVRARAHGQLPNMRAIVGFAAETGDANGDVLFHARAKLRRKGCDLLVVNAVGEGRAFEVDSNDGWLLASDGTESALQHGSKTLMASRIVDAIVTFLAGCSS
UniProt Q8IDJ8, 1-583: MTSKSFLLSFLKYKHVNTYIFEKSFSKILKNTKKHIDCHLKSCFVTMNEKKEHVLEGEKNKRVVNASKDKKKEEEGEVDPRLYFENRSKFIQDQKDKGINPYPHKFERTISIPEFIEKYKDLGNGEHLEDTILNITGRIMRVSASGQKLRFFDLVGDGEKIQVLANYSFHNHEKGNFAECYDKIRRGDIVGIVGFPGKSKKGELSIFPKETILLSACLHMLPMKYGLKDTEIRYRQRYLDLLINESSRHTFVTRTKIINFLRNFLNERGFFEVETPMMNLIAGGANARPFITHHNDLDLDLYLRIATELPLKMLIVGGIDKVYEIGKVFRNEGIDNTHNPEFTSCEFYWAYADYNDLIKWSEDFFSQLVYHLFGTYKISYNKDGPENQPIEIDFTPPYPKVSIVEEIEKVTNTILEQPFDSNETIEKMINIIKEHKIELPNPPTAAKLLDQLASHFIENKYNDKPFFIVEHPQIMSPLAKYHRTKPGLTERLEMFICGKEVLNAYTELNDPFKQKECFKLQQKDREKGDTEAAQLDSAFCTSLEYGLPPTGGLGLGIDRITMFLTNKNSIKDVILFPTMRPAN
UniProt Q4DA54, 1-478: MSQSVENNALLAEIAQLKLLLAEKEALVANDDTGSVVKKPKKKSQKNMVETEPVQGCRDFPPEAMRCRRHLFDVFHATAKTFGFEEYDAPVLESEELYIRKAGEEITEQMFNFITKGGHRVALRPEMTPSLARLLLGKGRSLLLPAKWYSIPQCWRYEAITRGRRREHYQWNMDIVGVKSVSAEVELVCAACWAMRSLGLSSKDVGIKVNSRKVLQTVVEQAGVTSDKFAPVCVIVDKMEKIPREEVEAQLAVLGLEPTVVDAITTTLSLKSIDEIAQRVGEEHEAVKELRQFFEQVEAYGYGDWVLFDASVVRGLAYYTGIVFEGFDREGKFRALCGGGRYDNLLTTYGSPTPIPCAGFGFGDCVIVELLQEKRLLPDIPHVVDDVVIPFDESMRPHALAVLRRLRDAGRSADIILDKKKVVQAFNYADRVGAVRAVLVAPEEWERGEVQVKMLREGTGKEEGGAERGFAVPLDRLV

From ChEMBL document CHEMBL3988442, “University of Dundee, Small-Polar-MMV Screening Library” (2021).

Pks13 thioesterase: 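Polyketide synthase Pks13, Mycobacterium tuberculosis (UniProt I6X8D2). Enzyme assay of the thioesterase domain of polyketide synthase 13; the read-out is not stated. Tested at 30 µM. Higher reads as stronger inhibition (inferred from which compounds were picked for retests). About 67,000 compounds were tested under these conditions; 0.46% (about 300) showed 50% or more at least once.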
CoaBC: 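Enzyme assay of CoaBC with a phosphate dye (Biomol Green) read at 650 nm. Target: Coenzyme A biosynthesis protein CoaBC, Mycobacterium tuberculosis (UniProt P9WNZ1). Concentration: 30 µM. Higher reads as stronger inhibition, judged from the few compounds that gave an IC50. Most strong results did not repeat in a second test. Size under these conditions: about 67,000 compounds, about 40 of them at 50% or above in at least one test.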
PfKRS1: 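Enzyme assay of the cytosolic lysyl-tRNA synthetase in 384-well plates, read by luminescence. Target: Lysine-tRNA ligase, Plasmodium falciparum 3D7 (UniProt Q8IDJ8). Compounds at 30 µM. Direction is inferred from only a few compounds that gave an IC50; most scored high, so higher reads as stronger inhibition. Size under these conditions: about 69,000 compounds, about 49 of them at 50% or above in at least one test.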
TcHisRS: 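Enzyme assay of histidyl-tRNA synthetase; the read-out is not stated. Target: Histidine-tRNA ligase, Trypanosoma cruzi CL Brener (UniProt Q4DA54). Compounds at 30 µM. The record gives no direction; compounds that gave an IC50 in retests scored well above the rest, so higher reads as stronger inhibition. Size under these conditions: about 69,000 compounds, about 31 of them at 50% or above in at least one test.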

Each number is a percent effect as filed.
The record does not define 0% and 100%; most values in the screen are far below 50% and negative numbers occur (in some assays of this library far below -100).
This is an unselected part of the compounds tested.
A dash means the value is not listed here; it may have been measured.

- CCc1nnc2n1CCN(C(=O)C(OC)c1ccccc1)C2 (stereo unspecified) | Pks13 thioesterase: -30.23%; CoaBC: 2.871%; PfKRS1: 0.7962%; TcHisRS: 4.902%
- CC(C)(C)C(=O)NS(=O)(=O)c1ccc(F)cc1C(F)(F)F | Pks13 thioesterase: -4.437%; CoaBC: 0.7009%; PfKRS1: 3.717%; TcHisRS: -2.212%
- CN(C)c1nc(N)nc(CSCCC(=O)Nc2ccc(F)cc2)n1 | Pks13 thioesterase: -11.38%; CoaBC: 0%; PfKRS1: 3.863%; TcHisRS: 13.29%
- Cc1nc2cc(OCc3nc(C(=O)NC(C)(CO)CO)co3)ccc2s1 | Pks13 thioesterase: -3.947%; CoaBC: -0.8444%; PfKRS1: 5.086%; TcHisRS: 2.513%
- CCCS(=O)(=O)NCc1cccnc1Oc1ccc(C)nc1 | Pks13 thioesterase: 0.3553%; CoaBC: -0.8485%; PfKRS1: 3.221%; TcHisRS: 5.102%
- CC(=O)Nc1ccc(CN(C)Cc2snnc2C)cc1 | Pks13 thioesterase: -0.7264%; CoaBC: 11.4%; PfKRS1: 5.576%; TcHisRS: -34%
- Cc1cc(C)c(CNC(=O)N(C)Cc2ccoc2)c(=O)[nH]1 | Pks13 thioesterase: -7.84%; CoaBC: 0.1304%; PfKRS1: 0.3307%; TcHisRS: 2.312%
- CCC(=O)NC(CC)c1ccccc1C (stereo unspecified) | Pks13 thioesterase: -5.149%; CoaBC: 5.178%; PfKRS1: -2.552%; TcHisRS: 5.025%
- Cc1ccccc1C1(C(=O)NCCN2CCCCC2C)CCOCC1 (stereo unspecified) | Pks13 thioesterase: -21.74%; CoaBC: 1.579%; PfKRS1: 4.076%; TcHisRS: -0.2933%
- Cc1cc(Cl)ccc1C(=O)N[C@H]1CN(S(C)(=O)=O)C[C@@H]1C1CC1 | Pks13 thioesterase: 8.329%; CoaBC: 0.3226%; PfKRS1: 1.178%; TcHisRS: -3.448%
- COCCN(Cc1sccc1C)C(=O)C1CCN(C(C)C)CC1 | Pks13 thioesterase: -18.67%; CoaBC: 0.4902%; PfKRS1: 2.434%; TcHisRS: 2.381%
- CCn1nccc1CNC(=O)C1CCCO1 (stereo unspecified) | Pks13 thioesterase: -21.34%; CoaBC: 5.855%; PfKRS1: 0.3767%; TcHisRS: 0%
- CC(C)n1ncc2c1NC(=O)CC21C(=O)Nc2c(Cl)ccc(Cl)c21 (stereo unspecified) | Pks13 thioesterase: -33.93%; CoaBC: 2.525%; PfKRS1: 6.813%; TcHisRS: -0.5848%
- COc1ccc(C(=O)N2C[C@H]3CC[C@@H]2CN(C)C3)cc1Cl | Pks13 thioesterase: 0.5591%; CoaBC: -2.211%; PfKRS1: -9.469%; TcHisRS: 3.529%
- CCC(=O)N1CCC(NC(=O)c2cccc(-n3ccnc3)c2)C1 (stereo unspecified) | Pks13 thioesterase: -9.782%; CoaBC: 0.3891%; PfKRS1: 3.119%; TcHisRS: 6.667%
- Cc1ccc(C2CN(C(=O)c3ccn(C)c(=O)c3)CCO2)nc1 (stereo unspecified) | CoaBC: 3.893%; PfKRS1: 0.9908%; TcHisRS: 5.224%
- COC(=O)NCc1ccc(NC(=O)CC2=CCCCC2)cc1 | Pks13 thioesterase: -29.06%; CoaBC: -4.274%; PfKRS1: 7.359%; TcHisRS: 8.108%
- O=C1N(Cc2cccc(F)c2F)CCCC1(O)CNCc1ccccc1 (stereo unspecified) | Pks13 thioesterase: 3.007%; CoaBC: 5.04%; PfKRS1: -5.958%; TcHisRS: 6.522%
- Cc1cccc(CN2C[C@@H]3CN(C(=O)C4CCOC4)C[C@@H]3C2=O)c1 (stereo partly specified) | Pks13 thioesterase: -8.771%; CoaBC: -2.104%; PfKRS1: 1.425%; TcHisRS: 7.538%
- CCCn1cnnc1CN(C)C(=O)CCC(=O)Nc1cc(C)ccc1F | Pks13 thioesterase: 2.967%; CoaBC: -1.229%; PfKRS1: 2.133%; TcHisRS: 0%
- COc1cc(F)cc2sc(NC(=O)COCC3CCCO3)nc12 (stereo unspecified) | Pks13 thioesterase: -4.472%; CoaBC: -1.656%; PfKRS1: -4.965%; TcHisRS: 1.657%
- CCc1cnc(N2CCN(Cc3ccno3)CC2)s1 | Pks13 thioesterase: -36.75%; PfKRS1: 7.582%; TcHisRS: 8.28%

Once more, the final 2:

| compound | Pks13 thioesterase | CoaBC | PfKRS1 | TcHisRS |
|---|---|---|---|---|
| `COc1cc(F)cc2sc(NC(=O)COCC3CCCO3)nc12` (stereo unspecified) | -4.472 | -1.656 | -4.965 | 1.657 |
| `CCc1cnc(N2CCN(Cc3ccno3)CC2)s1` | -36.75 | - | 7.582 | 8.28 |